Measurements reported in PMC7819943, “Rice protein-binding microarrays: a tool to detect cis-acting elements near promoter regions in rice”.
The other results are listed elsewhere or left out.

target: T1, OsSMF1 (Oryza sativa, UniProt Q6ZLB0 1-436); assay: protein-binding microarray (RPBM); PBS, 2% BSA, 51.3 ng/ul salmon testes DNA, 50 uM zinc acetate, 200 nM TF, 25 C, 1 h; high values mean tight binding; settings: protein: recombinant; tags: N-terminal polyhistidine and DsRed monomer fusion (pET32a); chain copies: 2; label: CyDye5-dUTP incorporated in the synthesized complementary strand; 3' TTTTT single-stranded linker to array surface; dsDNA, one strand shown
T1 sequence: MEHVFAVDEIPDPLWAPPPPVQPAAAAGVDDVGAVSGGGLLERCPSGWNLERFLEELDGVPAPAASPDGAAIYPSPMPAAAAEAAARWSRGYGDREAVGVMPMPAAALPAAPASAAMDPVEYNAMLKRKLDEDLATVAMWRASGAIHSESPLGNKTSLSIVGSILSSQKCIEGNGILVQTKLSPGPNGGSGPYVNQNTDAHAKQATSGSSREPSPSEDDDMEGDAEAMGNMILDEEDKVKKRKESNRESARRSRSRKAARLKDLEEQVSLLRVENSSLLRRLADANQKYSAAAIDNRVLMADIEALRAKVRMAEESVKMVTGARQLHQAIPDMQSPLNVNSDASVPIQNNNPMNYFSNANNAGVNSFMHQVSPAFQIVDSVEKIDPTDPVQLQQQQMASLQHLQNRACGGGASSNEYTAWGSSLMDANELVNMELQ
Procedure, shortened: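 Binding signal here means per-feature fluorescence intensity in arbitrary units. The values were read on an Axon 4000B scanner after a custom Agilent array, double-stranded by primer extension with Cy5-dUTP, was incubated with 200 nM protein at 25 °C for 1 h in PBS with 2% BSA, salmon testes DNA and 50 µM zinc acetate, then washed. The proteins were transcription factors with an N-terminal polyhistidine tag and DsRed, expressed in E. coli BL21-CodonPlus and purified on Ni–NTA.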

Sequence | binding signal
TCATGGCTCTAGTTACTAGTAGTAGATTGCAAATCGATTTCGGAGTCACCTAGTGCAG | 3170 fluorescence intensity (a.u.)
CCTGGCGGTCTCGGCGGCCACCTGGAGCCGGAAGTGGACGCGGAGTCACCTAGTGCAG | 36300 fluorescence intensity (a.u.)
AAAATGCCACGCCAGCTGACACGTCACCCACAGGCAAGTACGGAGTCACCTAGTGCAG | 15300 fluorescence intensity (a.u.)
CAGGTGGCAGCGTGACGCCAGCTGGCACCGGGGTGTGGGGCGGAGTCACCTAGTGCAG | 6890 fluorescence intensity (a.u.)
TTCCTTAGCTCATGTCAGCACAGCAACTACCTGTAACCTGCGGAGTCACCTAGTGCAG | 4240 fluorescence intensity (a.u.)
TATGCATTTTAAGAGTTTAGGGAACTAGATGACACACATCCGGAGTCACCTAGTGCAG | 3970 fluorescence intensity (a.u.)
TCCCTCCGCCGACGGCTCCCTCCTCTCCCACGTCCGCGCACGGAGTCACCTAGTGCAG | 3970 fluorescence intensity (a.u.)
CGTCTCGCCGGAGCGTTGACGAGGACCTCTCTACTCTTCACGGAGTCACCTAGTGCAG | 3680 fluorescence intensity (a.u.)
TATAGCAAAGAAAAGTAAAATAAGAGGCATGAGCTCACGCCGGAGTCACCTAGTGCAG | 37800 fluorescence intensity (a.u.)
GCGCATTGGCGAGGACTGCGACTATCTGGGAAGCGTGAAGCGGAGTCACCTAGTGCAG | 51500 fluorescence intensity (a.u.)
TTTCTCCACGTCAGCGAAACCACCTATATATATACTGCCACGGAGTCACCTAGTGCAG | 14300 fluorescence intensity (a.u.)
TTAAATTAGCGTCCAAACATTCGATGTGACATGGACTAAGCGGAGTCACCTAGTGCAG | 4160 fluorescence intensity (a.u.)
ATATGTACGTTGGATAAGTTTGATGACGTGACATACACATCGGAGTCACCTAGTGCAG | 6160 fluorescence intensity (a.u.)
CGGCCTCGCCGTGGACGTCACCGTCCCCAACGCCGACGTTCGGAGTCACCTAGTGCAG | 3450 fluorescence intensity (a.u.)
GGGGTGGCGGTGGCGGTGGTGGTGGTGGTGGTGGTGGAGTCGGAGTCACCTAGTGCAG | 6290 fluorescence intensity (a.u.)
ACACGAGGACGCTGGTGACTGGTCACCGGGCCCCACTTTGCGGAGTCACCTAGTGCAG | 4190 fluorescence intensity (a.u.)
ACCAGGGCACGAGACCGTGGTGCCACGTGTCGGCATCGGCCGGAGTCACCTAGTGCAG | 17900 fluorescence intensity (a.u.)
TCCACACTCATATATACACGTGGCGGTGGTGTGGTGTGGACGGAGTCACCTAGTGCAG | 29000 fluorescence intensity (a.u.)
CGCGTGAATTAGCATTTCTGCGTGCACCAGGCCTAATTTCCGGAGTCACCTAGTGCAG | 3150 fluorescence intensity (a.u.)
GGCAGAAAACGGCTGCCTGCTACGTCACGTACTCGCGTGGCGGAGTCACCTAGTGCAG | 16300 fluorescence intensity (a.u.)
GACGCTCCGGATCAATCCACGTTGGCATGGCTTCCCCGCACGGAGTCACCTAGTGCAG | 17700 fluorescence intensity (a.u.)

Sequence | binding signal
TTTCTACGCAGCACAATTAACTCAACTTAAGCAAAAGCCGCGGAGTCACCTAGTGCAG | 32100 fluorescence intensity (a.u.)
GCTTCAAAGATTCGTCACGCAATTTCCTGGCGAATTGTGTCGGAGTCACCTAGTGCAG | 4270 fluorescence intensity (a.u.)
ATGTACACCATCAAGTCAGGAGGAGAAATCCCCTTCCACGCGGAGTCACCTAGTGCAG | 3390 fluorescence intensity (a.u.)
CTCTAATATGCAAGTTCGTGTGACTTACACGTATAGCATCCGGAGTCACCTAGTGCAG | 5020 fluorescence intensity (a.u.)
CTCTCTCTCTCCTCTCCGCCGGTGACGCCGGCATTTATAGCGGAGTCACCTAGTGCAG | 4720 fluorescence intensity (a.u.)
GGTCGATGATGATGATGACGACGACGAGAGGAGGAGAGATCGGAGTCACCTAGTGCAG | 3820 fluorescence intensity (a.u.)
AAGCAAAAGAGTGGCACCTACGGGCACGGCCATGGCTGTGCGGAGTCACCTAGTGCAG | 3140 fluorescence intensity (a.u.)
GGGCCCAATGACAGACTTAGTAAGGCCGTGCGTTACCTCGCGGAGTCACCTAGTGCAG | 35200 fluorescence intensity (a.u.)
CCCCTCCGAATCAAACGTGGCGGCTGACGACCTTCCTTGTCGGAGTCACCTAGTGCAG | 9350 fluorescence intensity (a.u.)
ATTGTCTCCCTCGACTTGCCCTGTTGTCCACGTTGACTCGCGGAGTCACCTAGTGCAG | 7350 fluorescence intensity (a.u.)
CACGGGTCACCGAGCTTGCATTGTCATGTAGTAGTAGGTGCGGAGTCACCTAGTGCAG | 35000 fluorescence intensity (a.u.)
GAGGCAGCGAGCCCATCTACGTCATCCACAACGTTGTATGCGGAGTCACCTAGTGCAG | 9270 fluorescence intensity (a.u.)
ATCCAAGAGTGTTGTGGGACTGACATTTGGCTTAATTCTGCGGAGTCACCTAGTGCAG | 4020 fluorescence intensity (a.u.)
GGTGATTTTATATATATTCACGCATTTCGTGGACCTTCTTCGGAGTCACCTAGTGCAG | 3210 fluorescence intensity (a.u.)
TGCCTTTGATTAATGTCATGATGTCACATGCTGAGATTCACGGAGTCACCTAGTGCAG | 8320 fluorescence intensity (a.u.)
TCTCCCCTACTCATTGTCGGCTGACCTGGAGGTTGCGTTGCGGAGTCACCTAGTGCAG | 8240 fluorescence intensity (a.u.)
CAGGCCGGAAACCGGCCGAGCCCACCCATTAGAAAGGACGCGGAGTCACCTAGTGCAG | 22900 fluorescence intensity (a.u.)
AGGGGAAAGGTATGGAAATGACCACCATCATCACCAACTACGGAGTCACCTAGTGCAG | 3950 fluorescence intensity (a.u.)
TCCTCCTCCGCCGCCGCCGCCGCCATCATCGTCGTCGTCGCGGAGTCACCTAGTGCAG | 3270 fluorescence intensity (a.u.)
AGCAATTTGGCCGCCTGACCCCGTGCCGACGTGGCCCGGCCGGAGTCACCTAGTGCAG | 13500 fluorescence intensity (a.u.)
TAGCTAACGTGGCGTATACGTGGCTCATTTAACGAGGTCTCGGAGTCACCTAGTGCAG | 12400 fluorescence intensity (a.u.)

Reprinted at random: two records from the list
Sequence | binding signal
ATTGTCTCCCTCGACTTGCCCTGTTGTCCACGTTGACTCGCGGAGTCACCTAGTGCAG | 7350 fluorescence intensity (a.u.)
GGTCGATGATGATGATGACGACGACGAGAGGAGGAGAGATCGGAGTCACCTAGTGCAG | 3820 fluorescence intensity (a.u.)
